# Results of single-concentration screens

T. brucei: 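Whole-parasite assay of Trypanosoma brucei over 72 hours; the read-out is not stated. Concentration: 30 µM. Direction is inferred from retests: higher values go with stronger inhibition. Values scatter widely below zero; nearly all retest evidence comes from the higher of the two concentrations used. About 64,000 compounds were tested under these conditions; 1.5% (about 940) showed 50% or more at least once.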
Leishmania in macrophages: 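Cell assay of Leishmania donovani living inside macrophages; the read-out is not stated. Compounds at 30 µM. Higher reads as stronger inhibition (inferred: compounds with an IC50 in retests scored well above the rest). About 69,000 compounds were tested under these conditions; 1.5% (about 1,000) showed 50% or more at least once.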
Toxoplasma: 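Assay of Toxoplasma gondii numbers, read through their beta-galactosidase reporter with a colour substrate. Compounds at 10 µM. The record gives no direction; the compounds picked for IC50 retests had high values, so higher reads as fewer parasites. Of about 67,000 compounds tested this way, about 260 (0.38%) reached 50% or more in at least one test.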

The filed quantity is “Percent Effect” (%). The record does not define 0% and 100%; most values in the screen are far below 50% and negative numbers occur (in some assays of this library far below -100). The compounds are a random part of those screened.

CCN(Cc1ccc2c(c1)OCO2)Cc1nc(C)no1 gave T. brucei: -85.51%; Leishmania in macrophages: -2.872%; Toxoplasma: 1.781%.
CCn1c(C(=O)N2CCN(C(=O)COC)CC2)cc2ccccc21 gave T. brucei: 6.341%; Leishmania in macrophages: 7.17%; Toxoplasma: 3.812%.
Cc1ccc2cccc(C(=O)NCC3CCN(C(C)C)C3)c2n1 (stereo not shown) gave T. brucei: -3.414%; Leishmania in macrophages: 6.487%; Toxoplasma: -2.005%.
O=C(O)C(F)(F)F.O=C(O)C(F)(F)F.O=C(O)C(F)(F)F.[H][C@@]12CN(Cc3ccccn3)C[C@]1([H])OCCN2c1ccc(C)nn1 gave T. brucei: -13.28%; Leishmania in macrophages: 63.6%; Toxoplasma: 7.664%.
CC(C)(NC(=O)c1cnc(-c2ccccc2F)s1)C(N)=O gave T. brucei: -11.85%; Leishmania in macrophages: 22.7%; Toxoplasma: 22.48%.
CCc1nc(N)nc(NCCC(=O)NC2CCCCC2)c1C gave T. brucei: -36.12%; Leishmania in macrophages: 26.52%; Toxoplasma: -5.256%.
COc1ccc(CN(C)[C@@H]2CN(C(=O)c3ccccc3)C[C@H]2O)cc1 gave T. brucei: -6.561%; Leishmania in macrophages: -25.54%; Toxoplasma: 7.151%.
COc1ccc(S(=O)(=O)NCc2cccnc2N(C)C)cc1 gave Leishmania in macrophages: 27.65%; Toxoplasma: 19.65%.
COCCN1C[C@@H](C)[C@@]2(COCCN(C(=O)c3ccccn3)C2)C1.O=C(O)C(F)(F)F.O=C(O)C(F)(F)F gave T. brucei: -3.298%; Leishmania in macrophages: 21.38%; Toxoplasma: 5.049%.
[H][C@@]12CCN(Cc3ccc4c(c3)OCO4)C[C@]1(c1nnc(C)o1)CCO2 gave T. brucei: -10.43%; Leishmania in macrophages: 9.597%; Toxoplasma: -1.493%.
CCN1CC(C(=O)N2CCN(c3nsc4ccccc34)CC2)CCC1=O (stereo not shown) gave T. brucei: 18.26%; Leishmania in macrophages: 22.5%; Toxoplasma: 23.58%.
O=C1CN(Cc2ccc3ccccc3n2)CCN1C1CCCC1 gave Leishmania in macrophages: 27.16%.
FC(F)(F)c1cc(C2CCN(c3cnccn3)CC2)n2ccnc2n1 gave T. brucei: 5.607%; Leishmania in macrophages: -7.038%; Toxoplasma: 8.419%.
COc1ccc(-n2nnc(C(=O)NCC3CCCCC3)n2)cc1 gave T. brucei: 15.9%; Leishmania in macrophages: -2.895%; Toxoplasma: 7.336%.
Cc1ncsc1C(=O)N1CCn2nc(CN3CCSCC3)cc2C1 gave T. brucei: 10.56%; Leishmania in macrophages: 16.29%; Toxoplasma: 3.25%.
Cn1cc(C2COC3(CCN(C(=O)c4ccc(F)cc4)CC3)C2)cn1 (stereo not shown) gave Leishmania in macrophages: 16.51%; Toxoplasma: 0.269%.
CCOc1ccccc1OC1CCN(C(=O)c2cnns2)CC1 gave T. brucei: -11.86%; Leishmania in macrophages: -9.828%; Toxoplasma: 9.732%.
Cc1nn(-c2ccccc2)cc1C(=O)N1CCCC1c1cnn(C)c1 (stereo not shown) gave T. brucei: -1.542%; Leishmania in macrophages: 11.05%; Toxoplasma: 0.2665%.
CS(=O)(=O)NCC1CCCN(C(=O)c2ccc3c(c2)CCCC3)C1 (stereo not shown) gave T. brucei: -63.76%; Leishmania in macrophages: -2.674%; Toxoplasma: 2.778%.
CCn1ccnc1CNCC1CCN(CC(O)c2ccccc2)CC1 (stereo not shown) gave T. brucei: 95.36%; Leishmania in macrophages: 33.61%; Toxoplasma: 0.2256%.
CCN(CC)C(=O)C(c1ccccc1)N1CCn2c(C)nnc2C1 (stereo not shown) gave T. brucei: 15.05%; Leishmania in macrophages: 10.71%; Toxoplasma: -13.46%.
[H][C@@]12CCN(C(=O)c3occc3C)C[C@]1(COCc1ccncc1)CCO2 gave T. brucei: 31.58%; Leishmania in macrophages: 40.69%; Toxoplasma: -3.991%.
CCc1ccccc1OC1CN(CC2CCOC2)C1 (stereo not shown) gave T. brucei: -16.38%; Leishmania in macrophages: -17.25%; Toxoplasma: -17.14%.
O=C(O)C(F)(F)F.[H][C@]12CCCN(Cc3ccc(C)o3)[C@@]1([H])CN(C(=O)c1ccco1)C2 gave T. brucei: -4.93%; Leishmania in macrophages: -1.813%; Toxoplasma: -23.23%.
O=C(CN1CCCCCC1)NCc1cccnc1Oc1ccccc1 gave T. brucei: -16.27%; Leishmania in macrophages: 27.89%; Toxoplasma: 17.98%.
O=C(O)C(F)(F)F.O=C(O)C(F)(F)F.c1csc(CN2Cc3nc(CN4CCCC4)oc3C2)c1 gave T. brucei: -24.4%; Leishmania in macrophages: 11.97%; Toxoplasma: -2.431%.

For reference, 2 entries once more:

- O=C1CN(Cc2ccc3ccccc3n2)CCN1C1CCCC1 | Leishmania in macrophages: 27.16%
- [H][C@@]12CCN(C(=O)c3occc3C)C[C@]1(COCc1ccncc1)CCO2 | T. brucei: 31.58%; Leishmania in macrophages: 40.69%; Toxoplasma: -3.991%

From ChEMBL document CHEMBL3988442, “University of Dundee, Small-Polar-MMV Screening Library” (2021).